Results: publication PMC10607544
Numbering of substitutions follows the chain as printed. Results are given in words; binding and its absence hold for the method and conditions named. Binding calls can cover weak binding; strength is not graded here.

Key:
Test in all cases: two-hybrid; Sh2 and Sh2 Ser31A/D/E in pGBK-T7 as bait, Bt2 in pGAD-T7 as prey; yeast AH109; SD/-leu-trp and SD/-trp-leu-his-ade/X-alpha-gal plates, gradient dilutions
[1] = molecular target: T1, AGPase large subunit Sh2 (shrunken2), yeast two-hybrid bait PGBK-T7-Sh2 (maize) (UniProt P55241)
T1 sequence: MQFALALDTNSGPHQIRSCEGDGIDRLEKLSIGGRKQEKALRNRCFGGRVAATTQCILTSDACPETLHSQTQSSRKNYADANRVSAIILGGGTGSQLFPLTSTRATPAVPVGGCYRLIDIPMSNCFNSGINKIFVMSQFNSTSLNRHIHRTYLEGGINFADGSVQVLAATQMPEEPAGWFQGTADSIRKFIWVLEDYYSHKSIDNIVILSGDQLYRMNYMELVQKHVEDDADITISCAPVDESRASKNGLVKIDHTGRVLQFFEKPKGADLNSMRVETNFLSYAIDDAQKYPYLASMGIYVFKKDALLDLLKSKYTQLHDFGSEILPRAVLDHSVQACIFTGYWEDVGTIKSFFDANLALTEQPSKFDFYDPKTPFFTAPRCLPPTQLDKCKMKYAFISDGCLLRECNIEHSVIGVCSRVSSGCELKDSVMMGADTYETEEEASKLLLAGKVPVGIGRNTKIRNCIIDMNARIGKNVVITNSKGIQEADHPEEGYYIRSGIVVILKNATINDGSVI

[2] = molecular target: T2, Sh2-S31A, yeast two-hybrid bait PGBK-T7-Sh2-S31A (maize) (UniProt P55241)
T2 sequence: T1 sequence with S31A

[3] = molecular target: T3, Sh2-S31D, yeast two-hybrid bait PGBK-T7-Sh2-S31D (maize) (UniProt P55241)
T3 sequence: T1 sequence with S31D

[4] = molecular target: T4, Sh2-S31E, yeast two-hybrid bait PGBK-T7-Sh2-S31E (maize) (UniProt P55241)
T4 sequence: T1 sequence with S31E

Measured: binding

AGPase small subunit Bt2, yeast two-hybrid prey PGAD-T7-Bt2 (maize)
binds: all assays above
